The results in this text go back to PubChem BioAssay AID1347423 (Functional Genomics Laboratory (NCATS/FGL), 2020).

The campaign covered roughly 52,000 sequences. About 210 (0.4%) were called active.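 How the source made its calls: active means gene whose silencing raises cell survival under the drug, median off-target-corrected z-score across its silencing RNAs 2 or more; inactive means the rest.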 The list shows a part of the results.

This experiment in a line: Resistance to Poly (ADP-Ribose) Polymerase inhibitor: Gene Identification via Genome-wide siRNA Screen. Conditions: mouse BRCA2 R2336H ES cells, olaparib, CellTiter-Glo viability; stronger effect = higher value. In a few lines: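 Genome-wide siRNA screen (3 siRNAs/gene, 20 nM) in mouse ES cells carrying hypomorphic BRCA2 R2336H; olaparib 500 nM added 48 h post-transfection, CellTiter-Glo viability 72 h later. Normalized to plate-median negative control; MAD z-scores, gene median, seed-adjusted.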
(In general: Cellular ATP, detected with luciferase, serves as a proxy for viable cell number.)
On to GGAUUCAAAGCUUCCUUUATT against Eras, for which the z-score is inactive: 0.0631.

Regarding GCCUGAAUCACAUGACUUCTT against Iigp2, the z-score is inactive: 0.696.

With GGAGCUGAACUCAAUGGUATT against Hoxd3, the z-score was inactive: 0.492.

Regarding “GGAUCACUUUUAGUUUUCUTT against C230013L11Rik”, the z-score was inactive: -0.733.

As to CCUAGUCCCUCUGUCUCUUTT against Kctd13, the z-score is inactive: -0.55.

Consider GCAUGAUAAGGCAGCCGUATT against Amelx, for which the z-score is inactive: -0.474.

Take CCCGCCUAAUUCUAAAGUCTT against Aqp8: the z-score was inactive: 0.862.

As for GGAUCUACAACAUGGAAAUTT against Mrps21, the z-score was inactive: 1.15.

With CCAACUCCUAACAGACCUATT against Csf2rb1, the z-score was inactive: -0.313.

Regarding CGGAAUCAUACCCUGCUGUTT against Ube2q, the z-score was inactive: 0.569.

Consider “GGGUAUAAGGUCCCUUUUUTT against 5830443L24Rik”, for which the z-score is inactive: -1.36.

In the case of GCUUCUCCUCUUUGGAUUATT against Olfr866, the z-score was inactive: 1.08.

Consider GGCAGCCUUAUCCACGUGATT against Ces2, for which the z-score is inactive: 2.26.

As to CCUUGUCGAGCACAUGAGATT against Zfp69, the z-score is inactive: -0.582.

CCAUGAAACUUAAAAUCCUTT against Tmem30b: the z-score was inactive: 0.575.

For GGGCAGUUUUACUUUGUAATT against Golga2, the z-score was inactive: -2.05.

With GCAGCAGUGUUCACCAAAATT against Aldh1a3, the z-score is inactive: -2.09.

With “GGCGAACUGUUCGAUUGCGTT against 5730538E15Rik”, the z-score is inactive: -1.17.

As to “GGAUGACAGUGAAUUAGACTT against 1810015C04Rik”, the z-score is inactive: 0.694.

Turning to GGCAUCCAAUGAUUACAAATT against Ubash3a, the z-score is inactive: 0.288.

With GUGUGGUCACCAUUGUCCUTT against Ptprcap, the z-score was inactive: -0.859.

As to GGCGAGCAUGAUCAUCCCATT against Gcm1, the z-score was inactive: 2.35.

With “GCCUGUGGUGACAAGCAGATT against 3830422K02Rik”, the z-score was inactive: 0.776.

In the case of GGGAGAAAAGGGUCAAAAATT against Marco, the z-score was inactive: 0.352.

Turning to GCAGCACUGGCUAUUGAGATT against Man1b, the z-score was inactive: -0.173.

Take GGCUUUAGUUGUCUUUUAUTT against Il8ra: the z-score is inactive: 0.434.

On to GGAGCACUAUGAUGAGUUCTT against U2af1, for which the z-score was inactive: -2.85.

For the sequence CCGGUUUAUGUCCUCUAUATT against Slc8a1, the z-score was inactive: 0.781.

CCUUGAUCUACAUAGAACCTT against Olfr177: the z-score was inactive: 0.142.

With GGAUGUUCCAGCCCUUAUUTT against Zcchc5, the z-score is inactive: -2.36.

For GCCUGUUUUGCCUAAAGUGTT against Hnrpdl, the z-score was inactive: 0.72.

Take GGAGAGUUGGGACUAUGCATT against Cd37: the z-score is inactive: -0.176.

With “GUGUAGCUAGGAUUGUCAATT against 2310016F22Rik”, the z-score is inactive: 0.248.

On to GGGCAAAAUACAAAAGGAGTT against Mlph, for which the z-score was inactive: -0.528.

As to “GGAUUUUUGCCAGUUAGUATT against D10Ertd438e”, the z-score was inactive: -2.26.

On to “GCUACUGACCAUUCUAACUTT against 1110012D08Rik”, for which the z-score was inactive: -0.266.

On to “CGUAAGAAAAAUAGCACAUTT against G630039H03Rik”, for which the z-score is inactive: 0.197.

With GGAGUUUGUCAACGAGGUGTT against Arl10a, the z-score is inactive: -0.377.

Regarding “GGGACAUUUUCAGUUUUCUTT against 6720456B07Rik”, the z-score was inactive: 0.631.

Take “GAUUGGAGUGGUCUCUGCUTT against 2410014A08Rik”: the z-score was inactive: 0.347.

On to GCAGGAGUCAAACGAGUACTT against Vim, for which the z-score is inactive: -1.05.

With “GGAAUAUGCACUUAAGCAATT against 2700084L06Rik”, the z-score was inactive: -0.421.

Consider GCUCUCUCUCUUCUUACUGTT against Olfr1160, for which the z-score is inactive: -0.186.

For GCUCCUUUUUCCUCUCUUUTT against Defb23, the z-score was inactive: -0.99.

For the sequence GGAAAGAGGAAUCAAGAAATT against Slc23a2, the z-score was inactive: -0.0929.

Turning to CCACAGAAUAAGACAAUAUTT against Fbxo34, the z-score is inactive: -1.38.

Turning to GGCAGUGGCAAAUCAAGAUTT against Pop1, the z-score is inactive: 1.6.

As to GGUCAAGAGGGAAAACUUUTT against Ctps, the z-score is inactive: -1.59.

GGAAAUGCAGAACCGAACATT against Echs1: the z-score is inactive: -0.192.

In the case of GCGGCGCAUGACUGAAAGATT against Chd8, the z-score was inactive: -1.43.

Consider CCCUUUGAUAUGAAGUCAATT against Copg2, for which the z-score was inactive: 2.14.

In the case of “GGCCUGUGAGACCAAUUGGTT against 9330199A09Rik”, the z-score is inactive: 0.0898.

Consider GCAUAAGGACCCUUUGUCATT against Rasl10b, for which the z-score was inactive: -1.19.

For CGGAUCCUGGUCACCAUUUTT against Olfr95, the z-score was inactive: -0.0093.

As to GGUCCUGUUAGUGUUUACCTT against Pde8a, the z-score was inactive: 1.59.

In the case of GGGCUAAGGACAGAAUUACTT against Tusc2, the z-score is inactive: 0.895.

Consider “GCUCAGCUGUGGGUAAUACTT against A430091O22Rik”, for which the z-score was inactive: -0.71.

Turning to “GGCAUGGAUUGGUGAGAUUTT against 9330175E14Rik”, the z-score is inactive: -1.05.

In the case of GGUUUUUUAACAGAGAUCCTT against Hipk1, the z-score is inactive: 0.916.

As to GGAGGAUUCCCUCUAUAUUTT against Slc33a1, the z-score was inactive: 0.624.

As to “GCUAAGUGGAGUUUAUGCUTT against D8Ertd319e”, the z-score is inactive: 1.85.

Consider GGACGAUUGCCAUAUGAACTT against Narg2, for which the z-score is inactive: 0.841.

For GGAAAGUCAAUCAGAAAAUTT against Dars, the z-score is inactive: -0.458.

As for GCUGUCUGAUUCUGAGGUGTT against Slc6a1, the z-score is inactive: -0.947.

Take “CGCAUUUGAAGUGUUCGACTT against 1700073K01Rik”: the z-score is inactive: 1.07.

Regarding GCCCUUUGGCAAUGUGAGATT against Opn1mw, the z-score was inactive: 1.56.
